In PMC5725494, “Cell cycle-dependent phosphorylation regulates RECQL4 pathway choice and ubiquitination in DNA double-strand break repair”:
These are yes or no findings as the source states them, for the method shown. Binding seen in cells or lysates may run through a third protein. Some binding calls cover weakened binding; strength is not graded here. For part of these data: Tags and fused reporters may be left off the sequences shown.

By UniProt entry, the sequences of proteins in these tests, tags left out.
UniProt Q13619: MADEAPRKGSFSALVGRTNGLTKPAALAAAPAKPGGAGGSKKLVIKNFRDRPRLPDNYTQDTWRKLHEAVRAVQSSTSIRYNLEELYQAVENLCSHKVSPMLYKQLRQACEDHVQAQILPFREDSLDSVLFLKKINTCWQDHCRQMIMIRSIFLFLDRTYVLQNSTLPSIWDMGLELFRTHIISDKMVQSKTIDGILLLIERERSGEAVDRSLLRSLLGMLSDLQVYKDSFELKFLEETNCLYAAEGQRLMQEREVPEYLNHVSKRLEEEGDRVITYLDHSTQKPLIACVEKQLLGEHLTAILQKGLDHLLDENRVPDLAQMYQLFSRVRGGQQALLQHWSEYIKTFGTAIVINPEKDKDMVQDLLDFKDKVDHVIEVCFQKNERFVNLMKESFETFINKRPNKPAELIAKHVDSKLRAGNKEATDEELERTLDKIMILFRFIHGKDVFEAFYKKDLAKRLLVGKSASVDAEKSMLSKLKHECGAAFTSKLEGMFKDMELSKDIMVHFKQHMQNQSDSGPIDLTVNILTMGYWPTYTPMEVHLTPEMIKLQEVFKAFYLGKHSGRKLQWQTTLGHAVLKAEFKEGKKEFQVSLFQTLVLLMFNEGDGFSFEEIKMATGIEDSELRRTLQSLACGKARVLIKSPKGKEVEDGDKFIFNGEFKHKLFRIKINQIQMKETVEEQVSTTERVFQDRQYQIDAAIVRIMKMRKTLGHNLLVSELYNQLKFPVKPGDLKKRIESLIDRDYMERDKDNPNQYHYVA

Key:
[1] = target: T1, 3×FLAG-tagged RECQL4 (wild type, full length) (human) (UniProt O94761); assay: co-IP; M2 FLAG beads on lysate (2 mg protein) of HEK293T cells expressing 3×FLAG-tagged RECQL4, mutants or truncations, overnight at 4 °C; lysis buffer 2 with Benzonase; Western blotting of endogenous partners
T1 sequence: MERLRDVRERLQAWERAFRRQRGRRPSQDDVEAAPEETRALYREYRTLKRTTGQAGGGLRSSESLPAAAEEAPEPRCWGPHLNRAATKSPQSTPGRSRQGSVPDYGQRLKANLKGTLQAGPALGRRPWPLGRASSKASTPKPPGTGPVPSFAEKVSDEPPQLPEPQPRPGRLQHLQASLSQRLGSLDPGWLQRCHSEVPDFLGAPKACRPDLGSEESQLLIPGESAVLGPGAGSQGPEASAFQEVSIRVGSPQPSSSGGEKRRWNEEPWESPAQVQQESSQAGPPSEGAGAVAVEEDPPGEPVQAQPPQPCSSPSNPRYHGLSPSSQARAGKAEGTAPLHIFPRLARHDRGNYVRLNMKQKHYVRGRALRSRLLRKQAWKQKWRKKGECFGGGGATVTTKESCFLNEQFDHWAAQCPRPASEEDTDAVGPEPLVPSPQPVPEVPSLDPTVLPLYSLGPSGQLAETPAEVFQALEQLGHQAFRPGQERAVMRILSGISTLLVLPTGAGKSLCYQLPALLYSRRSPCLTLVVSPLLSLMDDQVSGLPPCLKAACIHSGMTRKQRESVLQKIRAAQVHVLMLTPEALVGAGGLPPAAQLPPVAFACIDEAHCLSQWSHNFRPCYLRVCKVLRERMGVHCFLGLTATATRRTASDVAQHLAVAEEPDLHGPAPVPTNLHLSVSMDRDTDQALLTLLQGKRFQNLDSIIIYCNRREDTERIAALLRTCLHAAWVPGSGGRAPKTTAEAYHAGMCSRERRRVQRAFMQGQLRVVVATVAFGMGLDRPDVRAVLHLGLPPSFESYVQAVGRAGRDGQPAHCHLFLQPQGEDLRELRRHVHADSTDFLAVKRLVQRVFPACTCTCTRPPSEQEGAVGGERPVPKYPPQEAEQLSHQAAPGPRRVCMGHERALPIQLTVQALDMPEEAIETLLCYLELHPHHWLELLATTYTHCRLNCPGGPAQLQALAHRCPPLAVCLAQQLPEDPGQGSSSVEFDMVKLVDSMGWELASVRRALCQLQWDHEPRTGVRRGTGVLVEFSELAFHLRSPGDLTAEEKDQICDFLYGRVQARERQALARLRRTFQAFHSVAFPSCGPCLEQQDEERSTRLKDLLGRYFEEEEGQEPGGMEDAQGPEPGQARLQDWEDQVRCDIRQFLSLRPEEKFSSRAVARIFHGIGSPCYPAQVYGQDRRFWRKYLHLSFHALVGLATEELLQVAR

[2] = target: T2, GFP-tagged RECQL4 (wild type) (human) (UniProt O94761); assay: co-IP; GFP-TRAP beads on lysate (2 mg protein) of HEK293T cells expressing GFP-tagged RECQL4 or mutants, overnight at 4 °C; lysis buffer 2 (40 mM Tris-HCl pH 7.4, 100 mM NaCl, 2 mM MgCl2, 0.2% NP-40, 0.3% Triton) with Benzonase; cells irradiated with 10 Gy; asynchronous, or synchronised in G1 with aphidicolin and released 10 h for S/G2; Western blotting
T2 sequence: T1 sequence

[3] = target: T3, MRE11 (endogenous, U2OS) (human (endogenous in U2OS)) (UniProt P49959); assay: co-IP; anti-MRE11 antibody or normal mouse IgG with protein A/G agarose on U2OS lysate (lysis buffer 2); cells pretreated with CDK1 and CDK2 inhibitors or DMSO, irradiated with 10 Gy, IP 5 min after irradiation
T3 sequence: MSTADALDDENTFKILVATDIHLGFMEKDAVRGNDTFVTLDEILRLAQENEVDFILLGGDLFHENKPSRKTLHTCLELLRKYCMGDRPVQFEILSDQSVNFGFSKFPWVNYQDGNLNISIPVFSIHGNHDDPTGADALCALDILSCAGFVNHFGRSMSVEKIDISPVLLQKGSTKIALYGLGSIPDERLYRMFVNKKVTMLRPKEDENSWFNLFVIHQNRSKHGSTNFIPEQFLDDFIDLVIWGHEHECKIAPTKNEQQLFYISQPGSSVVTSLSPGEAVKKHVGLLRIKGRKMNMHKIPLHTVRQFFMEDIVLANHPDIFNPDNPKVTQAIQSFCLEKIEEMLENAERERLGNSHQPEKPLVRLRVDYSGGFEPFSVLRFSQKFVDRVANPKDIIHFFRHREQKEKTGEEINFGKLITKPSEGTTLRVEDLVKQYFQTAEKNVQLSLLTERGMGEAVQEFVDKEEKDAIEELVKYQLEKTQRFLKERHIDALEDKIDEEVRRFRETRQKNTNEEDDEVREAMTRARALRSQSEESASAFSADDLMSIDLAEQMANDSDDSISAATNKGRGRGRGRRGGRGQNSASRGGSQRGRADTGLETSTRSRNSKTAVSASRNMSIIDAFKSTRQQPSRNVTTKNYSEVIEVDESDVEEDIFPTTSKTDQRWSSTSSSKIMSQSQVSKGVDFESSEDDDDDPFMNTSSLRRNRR

Molecule: CUL4A (from UniProt Q13619 1-759)
- binding [1]: binds

Molecule: MRE11–RAD50–NBS1 complex (MRN) (from UniProt P49959 1-708; Q92878 1-1312; O60934 1-754)
- binding [2]: binds

B1: RECQL4 (endogenous, U2OS) (protein, UniProt O94761 1-1208)
chain: T1 sequence
- binding [3]: binds
